According to the supplement of paper PMC10077471:
The full ranking holds about 1,900 compounds; the median of “excess over highest single agent (ExcessHSA) synergy score, 6x6 matrix” is about -83, and the lowest 2% start at about -370. This is one part of the list.

Tested on: NCI-H446
Experiment: excess over highest single agent (ExcessHSA) synergy score, 6x6 matrix; higher = less synergy (more negative = stronger synergy)
Conditions: 72 h; CellTiter-Glo viability

SMILES | excess over highest single agent
O=c1cc(CN2CCOCC2)occ1OCCCCCSc1ccnc2cc(C(F)(F)F)ccc12 + Cc1sc2c(c1C)C(c1ccc(Cl)cc1)=N[C@@H](CC(=O)OC(C)(C)C)c1nnc(C)n1-2 [NCGC00250412-19] | -106
O=C(O)c1cc(=O)c2c(OCC(O)COc3cccc4oc(C(=O)O)cc(=O)c34)cccc2o1 + Cc1sc2c(c1C)C(c1ccc(Cl)cc1)=N[C@@H](CC(=O)OC(C)(C)C)c1nnc(C)n1-2 [NCGC00250412-19] | -36.5
Oc1ccc(C2=Cc3ccc(O)cc3OC2)cc1 + Cc1sc2c(c1C)C(c1ccc(Cl)cc1)=N[C@@H](CC(=O)OC(C)(C)C)c1nnc(C)n1-2 [NCGC00250412-19] | -209
Cc1ccc(O)c([C@H](CCN(C(C)C)C(C)C)c2ccccc2)c1 + Cc1sc2c(c1C)C(c1ccc(Cl)cc1)=N[C@@H](CC(=O)OC(C)(C)C)c1nnc(C)n1-2 [NCGC00250412-19] | -50.3
CC(C)c1cccc(C(C)C)c1O + Cc1sc2c(c1C)C(c1ccc(Cl)cc1)=N[C@@H](CC(=O)OC(C)(C)C)c1nnc(C)n1-2 [NCGC00250412-19] | -180
CCCCOc1ccc(CC(=O)NO)cc1 + Cc1sc2c(c1C)C(c1ccc(Cl)cc1)=N[C@@H](CC(=O)OC(C)(C)C)c1nnc(C)n1-2 [NCGC00250412-19] | 194
NC[C@H]1CC[C@H](C(=O)O)CC1 + Cc1sc2c(c1C)C(c1ccc(Cl)cc1)=N[C@@H](CC(=O)OC(C)(C)C)c1nnc(C)n1-2 [NCGC00250412-19] | -27.6
COc1ccc2nc3cc(Cl)ccc3c(Nc3cc(CN4CCCC4)c(O)c(CN4CCCC4)c3)c2n1 + Cc1sc2c(c1C)C(c1ccc(Cl)cc1)=N[C@@H](CC(=O)OC(C)(C)C)c1nnc(C)n1-2 [NCGC00250412-19] | -49.7
C[C@H]1c2cccc(O)c2C(O)=C2C(=O)[C@]3(O)C(O)=C(C(N)=O)C(=O)[C@@H](N(C)C)[C@@H]3[C@@H](O)[C@@H]21 + Cc1sc2c(c1C)C(c1ccc(Cl)cc1)=N[C@@H](CC(=O)OC(C)(C)C)c1nnc(C)n1-2 [NCGC00250412-19] | -128
Nc1nc(=O)c2c([nH]1)NCC(CNc1ccc(C(=O)N[C@@H](CCC(=O)O)C(=O)O)cc1)N2C=O (some centres not stated) + Cc1sc2c(c1C)C(c1ccc(Cl)cc1)=N[C@@H](CC(=O)OC(C)(C)C)c1nnc(C)n1-2 [NCGC00250412-19] | 19.2
Cc1ccccc1C(C(=O)NC1CCCC1)N(C(=O)Cn1cnc2ccccc21)c1cccc(F)c1 (configuration not stated) + Cc1sc2c(c1C)C(c1ccc(Cl)cc1)=N[C@@H](CC(=O)OC(C)(C)C)c1nnc(C)n1-2 [NCGC00250412-19] | -161
Cn1c(=O)c(F)c(Nc2ccc(I)cc2F)c2c(=O)n(C[C@@H](O)CO)cnc21 + Cc1sc2c(c1C)C(c1ccc(Cl)cc1)=N[C@@H](CC(=O)OC(C)(C)C)c1nnc(C)n1-2 [NCGC00250412-19] | -396
CN[C@@H]1Cc2cccc3[nH]c(=O)n(c23)C1 + Cc1sc2c(c1C)C(c1ccc(Cl)cc1)=N[C@@H](CC(=O)OC(C)(C)C)c1nnc(C)n1-2 [NCGC00250412-19] | -180
COc1ccc(-c2cc3c(C)nc(N)nc3n([C@H]3CC[C@H](OCCO)CC3)c2=O)cn1 + Cc1sc2c(c1C)C(c1ccc(Cl)cc1)=N[C@@H](CC(=O)OC(C)(C)C)c1nnc(C)n1-2 [NCGC00250412-19] | -297
O=c1[nH]c(=O)n([C@H]2C[C@H](O)[C@@H](CO)O2)cc1/C=C/Br + Cc1sc2c(c1C)C(c1ccc(Cl)cc1)=N[C@@H](CC(=O)OC(C)(C)C)c1nnc(C)n1-2 [NCGC00250412-19] | -69.9
CCC(C)(C)c1ccc(CC(C)CN2C[C@@H](C)O[C@@H](C)C2)cc1 (some centres not stated) + Cc1sc2c(c1C)C(c1ccc(Cl)cc1)=N[C@@H](CC(=O)OC(C)(C)C)c1nnc(C)n1-2 [NCGC00250412-19] | -69.1
CCOC(=O)c1ccc(C#Cc2ccc3c(c2)C(C)(C)CCS3)nc1 + Cc1sc2c(c1C)C(c1ccc(Cl)cc1)=N[C@@H](CC(=O)OC(C)(C)C)c1nnc(C)n1-2 [NCGC00250412-19] | -68.9
Cc1c(N)nc([C@H](CC(N)=O)NC[C@@H](N)C(N)=O)nc1C(=O)N[C@H](C(=O)N[C@@H](C)[C@H](O)[C@@H](C)C(=O)N[C@@H](C(=O)NCCc1nc(-c2nc(C(=O)NCCC[S+](C)C)cs2)cs1)[C@@H](C)O)C(O[C@H]1O[C@H](CO)[C@H](O)[C@@H](O)[C@H]1O[C@H]1O[C@H](CO)[C@@H](O)[C@H](OC(N)=O)[C@@H]1O)c1cnc[nH]1 (some centres not stated) + Cc1sc2c(c1C)C(c1ccc(Cl)cc1)=N[C@@H](CC(=O)OC(C)(C)C)c1nnc(C)n1-2 [NCGC00250412-19] | -335
CC(C)(C)C#Cc1cc(N(C(=O)[C@H]2CC[C@H](C)CC2)[C@H]2CC[C@H](O)CC2)c(C(=O)O)s1 + Cc1sc2c(c1C)C(c1ccc(Cl)cc1)=N[C@@H](CC(=O)OC(C)(C)C)c1nnc(C)n1-2 [NCGC00250412-19] | -16.2

SMILES | excess over highest single agent
O=C(NC1CC1)c1cccc(-c2ccc3c(NC(=O)C4CC4)n[nH]c3c2)c1 + Cc1sc2c(c1C)C(c1ccc(Cl)cc1)=N[C@@H](CC(=O)OC(C)(C)C)c1nnc(C)n1-2 [NCGC00250412-19] | -148
CC(CCc1ccc(O)cc1)NCCc1ccc(O)c(O)c1 (configuration not stated) + Cc1sc2c(c1C)C(c1ccc(Cl)cc1)=N[C@@H](CC(=O)OC(C)(C)C)c1nnc(C)n1-2 [NCGC00250412-19] | -18.6
CCCNS(=O)(=O)Nc1ncnc(OCCOc2ncc(Br)cn2)c1-c1ccc(Br)cc1 + Cc1sc2c(c1C)C(c1ccc(Cl)cc1)=N[C@@H](CC(=O)OC(C)(C)C)c1nnc(C)n1-2 [NCGC00250412-19] | -2.95
COc1ccc(-c2oc3c(CC=C(C)C)c(O)cc(O)c3c(=O)c2O)cc1 + Cc1sc2c(c1C)C(c1ccc(Cl)cc1)=N[C@@H](CC(=O)OC(C)(C)C)c1nnc(C)n1-2 [NCGC00250412-19] | -15.1
O=C1C(Cl)=C(NCCN2CCOCC2)C(=O)c2ncccc21 + Cc1sc2c(c1C)C(c1ccc(Cl)cc1)=N[C@@H](CC(=O)OC(C)(C)C)c1nnc(C)n1-2 [NCGC00250412-19] | 3.89
O=C(CCN1CCN(C(=O)OCc2cc(Cl)cc(Cl)c2)CC1)c1ccc2[nH]c(=O)oc2c1 + Cc1sc2c(c1C)C(c1ccc(Cl)cc1)=N[C@@H](CC(=O)OC(C)(C)C)c1nnc(C)n1-2 [NCGC00250412-19] | -78.3
Nc1ccc(S(N)(=O)=O)cc1 + Cc1sc2c(c1C)C(c1ccc(Cl)cc1)=N[C@@H](CC(=O)OC(C)(C)C)c1nnc(C)n1-2 [NCGC00250412-19] | -34.5
CCN(CC)CCCCNc1ncc2c(n1)N(C)C(=O)N(c1c(Cl)c(OC)cc(OC)c1Cl)C2 + Cc1sc2c(c1C)C(c1ccc(Cl)cc1)=N[C@@H](CC(=O)OC(C)(C)C)c1nnc(C)n1-2 [NCGC00250412-19] | 13.2
CC(C)C[C@H](NC(=O)c1cc2ccccc2s1)C(=O)N1CCN(C(=O)[C@H](CO)NS(=O)(=O)c2ccc(Cl)cc2Cl)CC1 + Cc1sc2c(c1C)C(c1ccc(Cl)cc1)=N[C@@H](CC(=O)OC(C)(C)C)c1nnc(C)n1-2 [NCGC00250412-19] | -254
O=[N+]([O-])c1ncc[nH]1 + Cc1sc2c(c1C)C(c1ccc(Cl)cc1)=N[C@@H](CC(=O)OC(C)(C)C)c1nnc(C)n1-2 [NCGC00250412-19] | -37.9
CC(C)(Oc1ccc(C2CC2(Cl)Cl)cc1)C(=O)O (configuration not stated) + Cc1sc2c(c1C)C(c1ccc(Cl)cc1)=N[C@@H](CC(=O)OC(C)(C)C)c1nnc(C)n1-2 [NCGC00250412-19] | -55.3
c1ccc2c(-c3cnn4cc(-c5ccc(N6CCNCC6)cc5)cnc34)ccnc2c1 + Cc1sc2c(c1C)C(c1ccc(Cl)cc1)=N[C@@H](CC(=O)OC(C)(C)C)c1nnc(C)n1-2 [NCGC00250412-19] | 77
NC(=O)[C@@H](CCC(F)(F)F)N(Cc1ccc(-c2ncon2)cc1F)S(=O)(=O)c1ccc(Cl)cc1 + Cc1sc2c(c1C)C(c1ccc(Cl)cc1)=N[C@@H](CC(=O)OC(C)(C)C)c1nnc(C)n1-2 [NCGC00250412-19] | -180
Cc1[nH]c(/C=C2\C(=O)Nc3ccc(S(=O)(=O)Cc4c(Cl)cccc4Cl)cc32)c(C)c1C(=O)N1CCC[C@@H]1CN1CCCC1 + Cc1sc2c(c1C)C(c1ccc(Cl)cc1)=N[C@@H](CC(=O)OC(C)(C)C)c1nnc(C)n1-2 [NCGC00250412-19] | -109
Nc1nc(Nc2ccc(S(N)(=O)=O)cc2)nn1C(=O)c1c(F)cccc1F + Cc1sc2c(c1C)C(c1ccc(Cl)cc1)=N[C@@H](CC(=O)OC(C)(C)C)c1nnc(C)n1-2 [NCGC00250412-19] | -304
CC(C)c1onc(-c2c(Cl)cccc2Cl)c1COc1ccc(/C=C/c2cccc(C(=O)O)c2)c(Cl)c1 + Cc1sc2c(c1C)C(c1ccc(Cl)cc1)=N[C@@H](CC(=O)OC(C)(C)C)c1nnc(C)n1-2 [NCGC00250412-19] | -97.7
COc1cc(O)c2c(c1)[C@H]1O[C@@H]1C[C@H](O)[C@H](O)C(=O)/C=C\C[C@H](C)OC2=O + Cc1sc2c(c1C)C(c1ccc(Cl)cc1)=N[C@@H](CC(=O)OC(C)(C)C)c1nnc(C)n1-2 [NCGC00250412-19] | -154
Cc1c(Cn2c(C)nc3c(C(=O)O)cc(N4CCOCC4)cc32)cccc1C(F)(F)F + Cc1sc2c(c1C)C(c1ccc(Cl)cc1)=N[C@@H](CC(=O)OC(C)(C)C)c1nnc(C)n1-2 [NCGC00250412-19] | -233

A stretch taken from the entries so far, as a working copy:
SMILES | excess over highest single agent
Nc1nc(=O)c2c([nH]1)NCC(CNc1ccc(C(=O)N[C@@H](CCC(=O)O)C(=O)O)cc1)N2C=O (some centres not stated) + Cc1sc2c(c1C)C(c1ccc(Cl)cc1)=N[C@@H](CC(=O)OC(C)(C)C)c1nnc(C)n1-2 [NCGC00250412-19] | 19.2
Cc1ccccc1C(C(=O)NC1CCCC1)N(C(=O)Cn1cnc2ccccc21)c1cccc(F)c1 (configuration not stated) + Cc1sc2c(c1C)C(c1ccc(Cl)cc1)=N[C@@H](CC(=O)OC(C)(C)C)c1nnc(C)n1-2 [NCGC00250412-19] | -161
